Results published in publication PMC11480334.
These are yes or no findings as the source states them, for the method shown. Binding seen in cells or lysates may run through a third protein. Here binding means that the protein was enriched with, or labelled near, the bait; the list need not be complete. Where a sequence is shown, tags or fusion partners need not be part of it.

By UniProt entry, the sequences of proteins in these tests, tags left out. Where a name states a change or a piece, a line headed by the entry shows the natural chain unless it says otherwise.
UniProt Q9VAC1: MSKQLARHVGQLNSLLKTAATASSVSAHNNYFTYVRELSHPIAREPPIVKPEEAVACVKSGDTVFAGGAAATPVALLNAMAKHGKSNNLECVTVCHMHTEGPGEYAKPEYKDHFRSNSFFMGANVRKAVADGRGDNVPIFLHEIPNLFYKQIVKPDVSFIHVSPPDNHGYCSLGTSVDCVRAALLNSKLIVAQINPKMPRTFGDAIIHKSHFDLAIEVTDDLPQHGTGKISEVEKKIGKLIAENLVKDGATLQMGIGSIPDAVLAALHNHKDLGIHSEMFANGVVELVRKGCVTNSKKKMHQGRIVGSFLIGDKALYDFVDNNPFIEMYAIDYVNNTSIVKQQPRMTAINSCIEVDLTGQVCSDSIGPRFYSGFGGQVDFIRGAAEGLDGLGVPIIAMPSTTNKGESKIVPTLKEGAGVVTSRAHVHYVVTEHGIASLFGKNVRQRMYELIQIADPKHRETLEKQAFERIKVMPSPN
UniProt P02828: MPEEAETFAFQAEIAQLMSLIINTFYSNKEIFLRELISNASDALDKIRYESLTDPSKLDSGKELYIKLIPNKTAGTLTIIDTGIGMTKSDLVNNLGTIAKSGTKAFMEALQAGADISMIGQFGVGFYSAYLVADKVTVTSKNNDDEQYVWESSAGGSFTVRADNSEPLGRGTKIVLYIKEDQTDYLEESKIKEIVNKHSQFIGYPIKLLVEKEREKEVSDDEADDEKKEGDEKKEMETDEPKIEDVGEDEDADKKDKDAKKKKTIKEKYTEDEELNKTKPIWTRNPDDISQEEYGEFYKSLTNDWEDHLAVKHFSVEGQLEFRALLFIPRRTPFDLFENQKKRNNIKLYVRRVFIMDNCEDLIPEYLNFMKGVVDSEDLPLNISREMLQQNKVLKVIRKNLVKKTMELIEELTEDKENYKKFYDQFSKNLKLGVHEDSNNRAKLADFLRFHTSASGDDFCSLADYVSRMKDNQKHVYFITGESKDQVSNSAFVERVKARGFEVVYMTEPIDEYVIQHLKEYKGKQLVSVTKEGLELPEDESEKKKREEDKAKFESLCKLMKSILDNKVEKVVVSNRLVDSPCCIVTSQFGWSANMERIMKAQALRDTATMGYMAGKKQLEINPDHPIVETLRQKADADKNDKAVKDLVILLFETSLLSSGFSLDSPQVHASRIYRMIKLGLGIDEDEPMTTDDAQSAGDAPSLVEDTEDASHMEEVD
UniProt P46461: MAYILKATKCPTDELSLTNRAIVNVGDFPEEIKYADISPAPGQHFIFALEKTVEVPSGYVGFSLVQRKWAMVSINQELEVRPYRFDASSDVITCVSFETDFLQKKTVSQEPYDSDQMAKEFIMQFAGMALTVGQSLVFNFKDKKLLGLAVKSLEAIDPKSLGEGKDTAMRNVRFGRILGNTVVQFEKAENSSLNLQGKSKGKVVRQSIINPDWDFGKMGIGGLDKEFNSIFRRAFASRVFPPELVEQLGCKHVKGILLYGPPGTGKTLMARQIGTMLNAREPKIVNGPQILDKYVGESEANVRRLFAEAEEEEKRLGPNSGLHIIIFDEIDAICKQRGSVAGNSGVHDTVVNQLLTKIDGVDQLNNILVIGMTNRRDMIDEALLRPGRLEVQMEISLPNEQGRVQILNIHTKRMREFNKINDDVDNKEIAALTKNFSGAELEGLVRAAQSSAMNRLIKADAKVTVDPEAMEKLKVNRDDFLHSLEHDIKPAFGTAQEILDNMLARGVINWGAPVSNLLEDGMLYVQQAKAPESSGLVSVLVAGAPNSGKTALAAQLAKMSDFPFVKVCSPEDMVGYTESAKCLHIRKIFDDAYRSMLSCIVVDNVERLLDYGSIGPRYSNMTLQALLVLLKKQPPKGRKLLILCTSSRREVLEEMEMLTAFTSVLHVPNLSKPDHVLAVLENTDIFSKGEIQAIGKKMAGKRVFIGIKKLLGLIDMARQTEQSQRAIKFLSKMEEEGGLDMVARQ
UniProt P06754: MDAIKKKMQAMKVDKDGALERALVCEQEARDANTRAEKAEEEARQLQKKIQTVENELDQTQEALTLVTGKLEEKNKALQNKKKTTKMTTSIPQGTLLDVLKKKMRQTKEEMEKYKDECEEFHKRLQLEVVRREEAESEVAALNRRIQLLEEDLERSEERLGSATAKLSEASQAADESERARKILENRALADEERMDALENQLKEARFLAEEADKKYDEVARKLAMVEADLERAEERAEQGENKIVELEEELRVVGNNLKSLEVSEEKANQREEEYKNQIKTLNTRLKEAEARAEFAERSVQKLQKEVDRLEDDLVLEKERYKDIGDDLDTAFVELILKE

These substances were tested against T1, mCherry-tagged Hdc (histidine decarboxylase), expressed in fly photoreceptor cells (Drosophila) (UniProt Q05733) (assay: affinity purification with mass spectrometry; heads of about 500 flies expressing mCherry-tagged Hdc or mCherry, lysed in 50 mM Tris-HCl pH 7.5, 150 mM NaCl, 1% NP-40; RFP agarose beads (RFP-Trap) 2 h at 4 °C; silver-stained bands cut out for mass spectra).
T1 sequence: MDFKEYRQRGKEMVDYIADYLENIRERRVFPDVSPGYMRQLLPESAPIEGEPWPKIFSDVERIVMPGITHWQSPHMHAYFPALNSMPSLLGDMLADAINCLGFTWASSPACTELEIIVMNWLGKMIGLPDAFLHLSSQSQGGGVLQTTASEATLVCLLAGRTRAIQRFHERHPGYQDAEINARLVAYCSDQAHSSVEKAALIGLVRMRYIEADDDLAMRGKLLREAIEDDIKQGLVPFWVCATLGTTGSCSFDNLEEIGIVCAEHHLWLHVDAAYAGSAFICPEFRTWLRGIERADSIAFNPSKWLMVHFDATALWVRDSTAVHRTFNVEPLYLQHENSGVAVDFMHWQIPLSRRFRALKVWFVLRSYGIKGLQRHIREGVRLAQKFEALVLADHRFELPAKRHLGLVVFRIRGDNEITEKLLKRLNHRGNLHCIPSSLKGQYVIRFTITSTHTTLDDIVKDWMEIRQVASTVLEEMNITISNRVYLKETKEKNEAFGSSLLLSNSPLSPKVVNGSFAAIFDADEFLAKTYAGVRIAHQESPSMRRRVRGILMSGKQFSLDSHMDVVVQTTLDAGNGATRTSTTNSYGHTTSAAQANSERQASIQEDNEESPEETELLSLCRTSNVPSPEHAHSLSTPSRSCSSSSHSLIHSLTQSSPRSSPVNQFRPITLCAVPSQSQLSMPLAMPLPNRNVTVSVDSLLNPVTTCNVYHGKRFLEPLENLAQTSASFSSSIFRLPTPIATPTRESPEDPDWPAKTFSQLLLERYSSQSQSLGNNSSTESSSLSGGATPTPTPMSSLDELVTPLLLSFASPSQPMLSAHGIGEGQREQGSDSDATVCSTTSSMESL

binding | Substance
binds | CG7920, endogenous in fly heads (from UniProt Q9VAC1)
binds | Hsp83, endogenous in fly heads (from UniProt P02828 1-717)
binds | NSF1 (N-ethylmaleimide-sensitive fusion protein 1), endogenous in fly heads (from UniProt P46461 1-745)
binds | Tm1, endogenous in fly heads (from UniProt P06754 1-339)
